Laboratory results taken from US20110281944A1, “METHOD OF A RHEIN COMPOUND FOR INHIBITING PANCREATIC ISLET BETA-CELL DYSFUNCTION AND PREVENTING OR TREATING A PANCREATIC ISLET BETA-CELL DYSFUNCTION RELATED DISORDER” (Research Institute of Nephrology of Nanjing PLA, China, priority 2010, published 2011).
“And” between values parts separate entries of the source, which are not always exact repeats. Identical values can stand only once. The source gives many values for each of these; only a part stands here.

Test: Oral absorption kinetics and pharmacokinetics of rhein in rats
Format: in vivo, Wistar rats
Experimental: Grouping of the animals and experimental procedure: Eighteen Wistar rats (male: female=1:1; body weight=180˜210 g) are randomly divided into 3 groups, 6 animal each group (male 3, female 3). The animals are fastened but supplied with free water for 10 h, and then are administrated ig with 35 mg/kg, 70 mg/kg or 140 mg/kg rhein. Blood samples are collected from carotid artery cannula at 0.033 h, 0.083 h, 0.25 h, 0.5 h, 0.75 h, 1 h, 2 h, 3 h, 4 h, 6 h, 8 h, 12 h and 14 h after administration, and centrifuged. 50 μl plasma is used for HPLC-fluorescence (FLD) analysis. The obtained plasma rhein concentration-time data are used for calculating pharmacokinetic parameters via corresponding pharmacokinetic programmes.

In the case of `O=C(O)c1cc(O)c2c(c1)C(=O)c1cccc(O)c1C2=O` [rhein], the Plasma rhein concentration (gavage 70 mg/kg, 0.033 h, individual rats 1-6, 70 mg/kg) is reported as 34.64 µg/mL and 37.28 µg/mL and 24.38 µg/mL and 23.12 µg/mL and 14.12 µg/mL and 14.57 µg/mL, the Plasma rhein concentration (gavage 70 mg/kg, 0.033 h, mean (x) of 6 rats) is reported as 24.68 µg/mL and the Plasma rhein concentration (gavage 70 mg/kg, 0.083 h, individual rats 1-6, 70 mg/kg) is reported as 30.38 µg/mL and 48.63 µg/mL and 34.14 µg/mL and 42.68 µg/mL and 26.18 µg/mL and 22.27 µg/mL. For the same compound, the Plasma rhein concentration (gavage 70 mg/kg, 0.083 h, mean (x) of 6 rats) was 34.05 µg/mL, the Plasma rhein concentration (gavage 70 mg/kg, 0.25 h, individual rats 1-6, 70 mg/kg) was 38.86 µg/mL and 65.89 µg/mL and 62.98 µg/mL and 49.02 µg/mL and 24.12 µg/mL and 31.05 µg/mL and the Plasma rhein concentration (gavage 70 mg/kg, 0.25 h, mean (x) of 6 rats) was 45.32 µg/mL. The Plasma rhein concentration (gavage 70 mg/kg, 0.50 h, individual rats 1-6, 70 mg/kg) was 50.53 µg/mL and 43.37 µg/mL and 44.14 µg/mL and 56.14 µg/mL and 33.63 µg/mL and 52.37 µg/mL, the Plasma rhein concentration (gavage 70 mg/kg, 0.50 h, mean (x) of 6 rats) was 46.70 µg/mL and the Plasma rhein concentration (gavage 70 mg/kg, 0.75 h, individual rats 1-6, 70 mg/kg) was 30.33 µg/mL and 40.26 µg/mL and 34.20 µg/mL and 46.37 µg/mL and 24.94 µg/mL and 49.16 µg/mL. The Plasma rhein concentration (gavage 70 mg/kg, 0.75 h, mean (x) of 6 rats) was 37.54 µg/mL, the Plasma rhein concentration (gavage 70 mg/kg, 2.0 h, individual rats 1-6, 70 mg/kg) was 26.24 µg/mL and 26.80 µg/mL and 15.09 µg/mL and 12.71 µg/mL and the Plasma rhein concentration (gavage 70 mg/kg, 2.0 h, mean (x) of 6 rats) was 21.41 µg/mL. For the same compound, the Plasma rhein concentration (gavage 70 mg/kg, 3.0 h, individual rats 1-6, 70 mg/kg) was 13.61 µg/mL and 21.97 µg/mL and 27.09 µg/mL and 11.54 µg/mL and 16.35 µg/mL and 9.87 µg/mL, the Plasma rhein concentration (gavage 70 mg/kg, 3.0 h, mean (x) of 6 rats) was 16.74 µg/mL and the Plasma rhein concentration (gavage 70 mg/kg, 4.0 h, individual rats 1-6, 70 mg/kg) was 7.23 µg/mL and 12.76 µg/mL and 19.78 µg/mL and 13.32 µg/mL and 14.65 µg/mL and 10.51 µg/mL. The Plasma rhein concentration (gavage 70 mg/kg, 4.0 h, mean (x) of 6 rats) was 13.04 µg/mL, the Plasma rhein concentration (gavage 70 mg/kg, 6.0 h, individual rats 1-6, 70 mg/kg) was 4.81 µg/mL and 6.74 µg/mL and 18.98 µg/mL and 7.55 µg/mL and 3.85 µg/mL and 5.39 µg/mL and the Plasma rhein concentration (gavage 70 mg/kg, 6.0 h, mean (x) of 6 rats) was 7.89 µg/mL. The Plasma rhein concentration (gavage 70 mg/kg, 8.0 h, individual rats 1-6, 70 mg/kg) was 6.32 μg/ml (2×) and 7.32 μg/ml and 11.38 μg/ml and 6.09 μg/ml and 2.52 μg/ml, the Plasma rhein concentration (gavage 70 mg/kg, 8.0 h, mean (x) of 6 rats) was 6.66 µg/mL and the Plasma rhein concentration (gavage 70 mg/kg, 12.0 h, individual rats 1-6, 70 mg/kg) was 2.52 µg/mL and 5.62 µg/mL and 6.21 µg/mL and 4.94 µg/mL and 1.14 µg/mL and 2.79 µg/mL. The Plasma rhein concentration (gavage 70 mg/kg, 12.0 h, mean (x) of 6 rats) was 3.87 µg/mL, the Plasma rhein concentration (gavage 70 mg/kg, 14.0 h, individual rats 1-6, 70 mg/kg) was 0.44 µg/mL and 0.40 µg/mL and 0.93 µg/mL and 3.56 µg/mL and 1.75 µg/mL and 1.91 µg/mL and the Plasma rhein concentration (gavage 70 mg/kg, 14.0 h, mean (x) of 6 rats) was 1.50 µg/mL. The Plasma rhein concentration (gavage 140 mg/kg, 0.033 h, individual rats 1-6, 140 mg/kg) was 13.55 µg/mL and 21.88 µg/mL and 9.42 µg/mL and 14.25 µg/mL and 22.00 µg/mL and 13.23 µg/mL, the Plasma rhein concentration (gavage 140 mg/kg, 0.033 h, mean (x) of 6 rats) was 15.72 µg/mL and the Plasma rhein concentration (gavage 140 mg/kg, 0.083 h, individual rats 1-6, 140 mg/kg) was 30.55 µg/mL and 35.10 µg/mL and 46.58 µg/mL and 22.35 µg/mL and 50.52 µg/mL and 24.47 µg/mL. For the same compound, the Plasma rhein concentration (gavage 140 mg/kg, 0.083 h, mean (x) of 6 rats) was 34.93 µg/mL, the Plasma rhein concentration (gavage 140 mg/kg, 0.25 h, individual rats 1-6, 140 mg/kg) was 61.22 µg/mL and 59.53 µg/mL and 69.37 µg/mL and 27.07 µg/mL and 54.64 µg/mL and 64.74 µg/mL and the Plasma rhein concentration (gavage 140 mg/kg, 0.25 h, mean (x) of 6 rats) was 56.09 µg/mL. For the same compound, the Plasma rhein concentration (gavage 140 mg/kg, 0.50 h, individual rats 1-6, 140 mg/kg) was 51.20 µg/mL and 87.95 µg/mL and 82.06 µg/mL and 52.43 µg/mL and 31.95 µg/mL and 45.63 µg/mL, the Plasma rhein concentration (gavage 140 mg/kg, 0.50 h, mean (x) of 6 rats) was 58.54 µg/mL and the Plasma rhein concentration (gavage 140 mg/kg, 0.75 h, individual rats 1-6, 140 mg/kg) was 33.65 µg/mL and 64.91 µg/mL and 48.63 µg/mL and 44.00 µg/mL and 31.47 µg/mL and 39.56 µg/mL. For the same compound, the Plasma rhein concentration (gavage 140 mg/kg, 0.75 h, mean (x) of 6 rats) was 43.70 µg/mL, the Plasma rhein concentration (gavage 140 mg/kg, 1.0 h, individual rats 1-6, 140 mg/kg) was 30.46 µg/mL and 49.08 µg/mL and 43.04 µg/mL and 18.64 µg/mL and 24.25 µg/mL and 35.51 µg/mL and the Plasma rhein concentration (gavage 140 mg/kg, 1.0 h, mean (x) of 6 rats) was 33.50 µg/mL. For the same compound, the Plasma rhein concentration (gavage 140 mg/kg, 2.0 h, individual rats 1-6, 140 mg/kg) was 22.45 µg/mL and 35.15 µg/mL and 37.37 µg/mL and 14.29 µg/mL and 28.00 µg/mL and 37.98 µg/mL, the Plasma rhein concentration (gavage 140 mg/kg, 2.0 h, mean (x) of 6 rats) was 29.21 µg/mL and the Plasma rhein concentration (gavage 140 mg/kg, 3.0 h, individual rats 1-6, 140 mg/kg) was 20.79 µg/mL and 25.58 µg/mL and 28.39 µg/mL and 16.91 µg/mL and 17.23 µg/mL and 24.19 µg/mL. For the same compound, the Plasma rhein concentration (gavage 140 mg/kg, 3.0 h, mean (x) of 6 rats) was 22.18 µg/mL, the Plasma rhein concentration (gavage 140 mg/kg, 4.0 h, individual rats 1-6, 140 mg/kg) was 15.52 µg/mL and 24.69 µg/mL and 20.82 µg/mL and 16.50 µg/mL and 26.59 µg/mL and 18.69 µg/mL and the Plasma rhein concentration (gavage 140 mg/kg, 4.0 h, mean (x) of 6 rats) was 20.47 µg/mL. For the same compound, the Plasma rhein concentration (gavage 140 mg/kg, 6.0 h, individual rats 1-6, 140 mg/kg) was 10.85 µg/mL and 19.98 µg/mL and 20.49 µg/mL and 17.58 µg/mL and 17.34 µg/mL and 19.34 µg/mL, the Plasma rhein concentration (gavage 140 mg/kg, 6.0 h, mean (x) of 6 rats) was 17.59 µg/mL and the Plasma rhein concentration (gavage 140 mg/kg, 8.0 h, individual rats 1-6, 140 mg/kg) was 6.47 µg/mL and 15.42 µg/mL and 14.46 µg/mL and 10.29 µg/mL and 13.74 µg/mL and 11.21 µg/mL. The Plasma rhein concentration (gavage 140 mg/kg, 8.0 h, mean (x) of 6 rats) was 11.93 µg/mL, the Plasma rhein concentration (gavage 140 mg/kg, 12.0 h, individual rats 1-6, 140 mg/kg) was 4.11 µg/mL and 2.48 µg/mL and 4.35 µg/mL and 6.63 µg/mL and 11.63 µg/mL and 6.14 µg/mL and the Plasma rhein concentration (gavage 140 mg/kg, 12.0 h, mean (x) of 6 rats) was 5.89 µg/mL. For the same compound, the Plasma rhein concentration (gavage 140 mg/kg, 14.0 h, individual rats 1-6, 140 mg/kg) was 3.40 µg/mL and 3.15 µg/mL and 4.05 µg/mL and 4.81 µg/mL and 6.83 µg/mL and 4.27 µg/mL and the Plasma rhein concentration (gavage 140 mg/kg, 14.0 h, mean (x) of 6 rats) was 4.42 µg/mL.
